Measurements reported in PubChem BioAssay AID1259254 (NCATS, 2017).
In all, the deposit lists about 59,000 reagents; this is a part drawn at random. About 1,550 of them (2.6%) were called active. 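G2 share is only a proxy for re-replication; each gene was hit by three separate siRNAs, and active genes were retested.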 The raw values are shown without normalisation. Unmarked entries are inactive. Reagents against one gene are numbered here. Not given: the amount of reagent.

Purpose: 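Gene knock-downs that lead to re-replication, shown by excess G2 DNA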 (primary screen)
Cells: human HCT116 colorectal cancer cells
Reagent: single siRNA against human genes
Time to read-out: 3 days
Measured: 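Imaged Hoechst DNA stain sorts each cell into a cycle phase by DNA amount; per plate, G2 fraction set to 0% for non-targeting and 100% for GMNN siRNA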
Direction: G2 robust z-score and G2 cells, % of GMNN control: higher = more G2 cells, more excess DNA replication; raw share of cells in G2: higher = larger share of cells with G2 DNA content
Hit rule: 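Active siRNAs have a G2 robust z of 5 or more median absolute deviations over the median, which in these data means about 38% or higher of GMNN control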

G2 robust z-score,"G2 cells, % of GMNN control",raw share of cells in G2 (%),target,siRNA no.
3.73,29.2,14.6,SLIT3 (slit guidance ligand 3),1
-0.812,-2.75,3.05,SLIT3 (slit guidance ligand 3),2
-1.22,-5.64,3.78,SLIT3 (slit guidance ligand 3),3
-0.604,-1.28,3.1,BATF (basic leucine zipper ATF-like transcription factor),1
-1.39,-6.79,2.96,BATF (basic leucine zipper ATF-like transcription factor),2
-0.431,-0.0616,3.31,BATF (basic leucine zipper ATF-like transcription factor),3
3.21,25.6,16.6,PDXDC1 (pyridoxal dependent decarboxylase domain containing 1),1
0.126,3.85,5.18,PDXDC1 (pyridoxal dependent decarboxylase domain containing 1),2
0.695,7.86,6.79,PDXDC1 (pyridoxal dependent decarboxylase domain containing 1),3
0.139,3.94,6.04,TMEM126B (transmembrane protein 126B),1
0.219,4.51,6.01,TMEM126B (transmembrane protein 126B),2
-0.883,-3.24,2.1,TMEM126B (transmembrane protein 126B),3
2.5,20.6,15.3,BPIFA1 (BPI fold containing family A member 1),1
0.322,5.23,6.18,BPIFA1 (BPI fold containing family A member 1),2
-0.607,-1.3,3.3,BPIFA1 (BPI fold containing family A member 1),3
-0.821,-2.81,2.56,BRAT1 (BRCA1 associated ATM activator 1),1
-0.771,-2.46,2.29,BRAT1 (BRCA1 associated ATM activator 1),2
-0.603,-1.27,2.79,BRAT1 (BRCA1 associated ATM activator 1),3
0.735,8.14,6.63,LINC02499 (long independently transcribed non-coding RNA 2499),1
-0.168,1.79,3.5,LINC02499 (long independently transcribed non-coding RNA 2499),2
0.816,8.71,6.9,LINC02499 (long independently transcribed non-coding RNA 2499),3
-0.768,-2.43,3.08,ADCYAP1 (adenylate cyclase activating polypeptide 1),1
-0.886,-3.26,3.91,ADCYAP1 (adenylate cyclase activating polypeptide 1),2
-0.516,-0.666,4.49,ADCYAP1 (adenylate cyclase activating polypeptide 1),3
-1.15,-5.15,3.42,KIF3B (kinesin family member 3B),1
1.12,10.9,8.05,KIF3B (kinesin family member 3B),2
-0.482,-0.424,4.1,KIF3B (kinesin family member 3B),3
-0.342,0.564,4.57,"PCDHGA11 (protocadherin gamma subfamily A, 11)",1
0.228,4.57,6.08,"PCDHGA11 (protocadherin gamma subfamily A, 11)",2
-0.903,-3.38,4.95,"PCDHGA11 (protocadherin gamma subfamily A, 11)",3
-0.831,-2.88,2.76,FN3KRP (fructosamine 3 kinase related protein),1
-0.845,-2.98,4.66,FN3KRP (fructosamine 3 kinase related protein),2
-0.691,-1.89,4.5,FN3KRP (fructosamine 3 kinase related protein),3
-0.342,0.559,3.38,NDUFA6 (NADH:ubiquinone oxidoreductase subunit A6),1
-0.478,-0.399,5.21,NDUFA6 (NADH:ubiquinone oxidoreductase subunit A6),2
-0.23,1.35,6.01,NDUFA6 (NADH:ubiquinone oxidoreductase subunit A6),3
-0.535,-0.796,3.75,C8orf76 (chromosome 8 open reading frame 76),1
1.04,10.3,6.22,C8orf76 (chromosome 8 open reading frame 76),2
-0.28,0.998,3.24,C8orf76 (chromosome 8 open reading frame 76),3
-0.911,-3.44,4.25,PTK2B (protein tyrosine kinase 2 beta),1
0.117,3.79,6.86,PTK2B (protein tyrosine kinase 2 beta),2
-0.291,0.917,4.35,PTK2B (protein tyrosine kinase 2 beta),3
-0.379,0.304,3.58,TP53BP2 (tumor protein p53 binding protein 2),1
-0.823,-2.82,3.52,TP53BP2 (tumor protein p53 binding protein 2),2
1.41,12.9,7.79,TP53BP2 (tumor protein p53 binding protein 2),3
-0.205,1.52,4.07,SYT5 (synaptotagmin 5),1
-0.841,-2.95,3.47,SYT5 (synaptotagmin 5),2
0.109,3.74,4.46,SYT5 (synaptotagmin 5),3
-1.06,-4.51,3.78,CHAC1 (ChaC glutathione specific gamma-glutamylcyclotransferase 1),1
0.648,7.53,7.01,CHAC1 (ChaC glutathione specific gamma-glutamylcyclotransferase 1),2
10.3 (active),75.2,31.6,CHAC1 (ChaC glutathione specific gamma-glutamylcyclotransferase 1),3
0.333,5.31,6.44,GOLGA6B (golgin A6 family member B),1
-1.46,-7.31,0.969,GOLGA6B (golgin A6 family member B),2
-0.627,-1.44,2.57,GOLGA6B (golgin A6 family member B),3
-0.0523,2.6,6.47,PSEN2 (presenilin 2),1
-0.996,-4.04,3.48,PSEN2 (presenilin 2),2
0.016,3.08,5.06,PSEN2 (presenilin 2),3
-0.0822,2.39,4.32,GJB6 (gap junction protein beta 6),1
-0.878,-3.21,4.56,GJB6 (gap junction protein beta 6),2
-0.573,-1.07,2.89,GJB6 (gap junction protein beta 6),3
-1.19,-5.38,1.67,FAM43B (family with sequence similarity 43 member B),1
-0.423,-0.0118,2.95,FAM43B (family with sequence similarity 43 member B),2
1.36,12.6,6.74,FAM43B (family with sequence similarity 43 member B),3
0.325,5.25,7.55,MEIS2 (Meis homeobox 2),1
-1.49,-7.53,2.45,MEIS2 (Meis homeobox 2),2
0.78,8.45,5.98,MEIS2 (Meis homeobox 2),3
0.176,4.21,6.29,PYGB (glycogen phosphorylase B),1
-0.294,0.895,4.44,PYGB (glycogen phosphorylase B),2
0.947,9.63,8.29,PYGB (glycogen phosphorylase B),3
1.62,14.4,9.34,BTF3 (basic transcription factor 3),1
2.3,19.2,11.9,BTF3 (basic transcription factor 3),2
2.62,21.4,12,BTF3 (basic transcription factor 3),3
-0.233,1.33,5.72,GPX3 (glutathione peroxidase 3),1
-1.01,-4.14,3.69,GPX3 (glutathione peroxidase 3),2
0.403,5.81,5.73,GPX3 (glutathione peroxidase 3),3
0.228,4.57,3.9,CFAP68 (cilia and flagella associated protein 68),1
1.52,13.6,10.5,CFAP68 (cilia and flagella associated protein 68),2
4.59,35.3,20.4,CFAP68 (cilia and flagella associated protein 68),3
0.117,3.79,7.2,CSRP3 (cysteine and glycine rich protein 3),1
-0.904,-3.4,3,CSRP3 (cysteine and glycine rich protein 3),2
0.295,5.05,6.14,CSRP3 (cysteine and glycine rich protein 3),3
1.49,13.5,8.48,RCAN3 (regulator of calcineurin 3),1
-0.126,2.08,4.85,RCAN3 (regulator of calcineurin 3),2
3.39,26.8,17.1,RCAN3 (regulator of calcineurin 3),3
-1.03,-4.28,2.72,NKAP (NFKB activating protein),1
-0.281,0.99,5.05,NKAP (NFKB activating protein),2
-0.744,-2.27,2.1,NKAP (NFKB activating protein),3

Individual results from the entries so far:
FAM43B (family with sequence similarity 43 member B) #2, raw share of cells in G2 (%): 2.95
For “G2 robust z-score”, TMEM126B (transmembrane protein 126B) #3 shows -0.883
Under “G2 robust z-score”, BTF3 (basic transcription factor 3) #2 has 2.3
PCDHGA11 (protocadherin gamma subfamily A, 11) #3, raw share of cells in G2 (%) = 4.95
FN3KRP (fructosamine 3 kinase related protein) #2, G2 robust z-score: -0.845
